Record: PubChem BioAssay AID504764 (Drosophila RNAi Screening Center, 2011)

Aim: 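Genome-wide screen for regulators of Notch-driven gene expression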 (primary screen)
Cells: Drosophila Kc167 cells
Reagents: long dsRNA against Drosophila genes
Time to read-out: about 5 days (4 days dsRNA, then 24 h after transfection)
Conditions: transfection of constitutively active membrane-tethered Notch lacking the extracellular domain, read 24 h later
Read-out: 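Light from a Notch-responsive E(spl)m3 luciferase reporter under active Notch, with control-promoter and no-Notch reporter wells to normalise; raw counts from paired wells a and b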
Reading the numbers: induced reporter light, run 1, well a and induced reporter light, run 1, well b: higher = more light from the Notch target reporter with active Notch; control promoter light, run 1, well a and control promoter light, run 1, well b: higher = more light from the viral control promoter (cell number, transfection, viability); uninduced reporter light, run 1, well a: higher = more light from the Notch target reporter without active Notch
Hit rule: 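Hit if the duplicate-averaged log2 ratio of induced to control-promoter light gives a plate-wise z beyond ±2, or induced to uninduced beyond ±1.8; weak-control or discordant-duplicate wells dropped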
Meaning of the calls: active = modifier hit (raised or lowered Notch signal); inactive = not a hit
In all, the deposit lists about 22,000 reagents; below is an unselected part of those that have a named target and a result. Over the whole deposit, 403 (1.9%) got an active call. 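Unnormalised raw counts per well; ratio z-scores behind the hit calls and whether each hit raises or lowers signal are not deposited.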 A plus sign joins genes that one reagent is predicted to hit. No sequences are given here. Not stated in the record: the amount of reagent.

gene | dsRNA | induced reporter light, run 1, well a | induced reporter light, run 1, well b | control promoter light, run 1, well a | control promoter light, run 1, well b | uninduced reporter light, run 1, well a | call
Ir54a + sub | DRSC06459 | 1.41e5 | 74225 | 1.13e5 | 1.08e5 | 6960 | inactive
Orcokinin | DRSC04202 | 1.55e5 | 1.46e5 | 1.42e5 | 1.33e5 | 11005 | inactive
mtsh | DRSC03070 | 1.41e5 | 1.69e5 | 92530 | 1.09e5 | 19505 | inactive
CG14422 | DRSC17919 | 1.11e5 | 1.28e5 | 2.00e5 | 2.39e5 | 8085 | inactive
CG13113 | DRSC02211 | 1.46e5 | 2.11e5 | 1.06e5 | 1.28e5 | 20375 | inactive
Eig71Eb | DRSC11149 | 2.05e5 | 1.88e5 | 2.32e5 | 1.93e5 | 7730 | inactive
CG6012 | DRSC02921 | 1.32e5 | 1.39e5 | 1.47e5 | 1.73e5 | 11835 | inactive
svr | DRSC17293 | 58480 | 69855 | 88105 | 87855 | 5610 | inactive
svr | DRSC18841 | 1.33e5 | 1.23e5 | 1.65e5 | 1.95e5 | 9005 | inactive
CG30429 | DRSC04040 | 1.44e5 | 1.59e5 | 2.48e5 | 2.35e5 | 9230 | inactive
CG31278 | DRSC16051 | 67800 | 85230 | 72250 | 59750 | 3860 | inactive
CG8910 | DRSC07414 | 87410 | 92630 | 1.72e5 | 1.75e5 | 8740 | inactive
CG11362 | DRSC04106 | 1.30e5 | 1.30e5 | 1.35e5 | 1.24e5 | 8665 | inactive
CG11362 | DRSC22032 | – | – | – | – | – | inactive
CG34354 | DRSC13863 | 2.24e5 | 2.20e5 | 2.19e5 | 2.43e5 | 19080 | inactive
CG34354 | DRSC14515 | 5765 | 5505 | 12965 | 12445 | 2310 | inactive
CG34354 | DRSC14558 | 4782 | 5055 | 9305 | 9810 | 2175 | inactive
CG34354 | DRSC15645 | 1.46e5 | 1.29e5 | 1.78e5 | 1.42e5 | 11020 | inactive
CG6729 | DRSC02984 | 3.09e5 | 2.98e5 | 2.09e5 | 2.20e5 | 17805 | active
Pits | DRSC19385 | 1.06e5 | 1.01e5 | 1.37e5 | 1.49e5 | 7350 | inactive
Pits | DRSC19812 | 92050 | 88485 | 1.50e5 | 1.05e5 | 5855 | inactive
l(2)SH0834 | DRSC02854 | 96620 | 98370 | 59985 | 78355 | 12495 | inactive
SCOT | DRSC08186 | 81900 | 1.04e5 | 2.01e5 | 1.84e5 | 7515 | inactive
Ndc80 | DRSC20221 | 2.05e5 | 1.76e5 | 3.33e5 | 2.69e5 | 14570 | inactive
Tsp42Ee | DRSC05947 | 1.58e5 | 1.71e5 | 2.34e5 | 1.96e5 | 13955 | inactive
NAAT1 | DRSC18300 | 1.70e5 | 1.52e5 | 2.72e5 | 2.99e5 | 11535 | inactive
mIF2 | DRSC14510 | 1.07e5 | 99870 | 1.41e5 | 1.55e5 | 8780 | inactive
CG4669 | DRSC10440 | 1.72e5 | 1.22e5 | 1.04e5 | 53820 | 15050 | inactive
Ufsp1 | DRSC04958 | 73235 | 84880 | 1.13e5 | 1.15e5 | 4038 | inactive
CG9897 + asRNA:CR42742 | DRSC04595 | 89175 | 73655 | 77830 | 84055 | 4785 | inactive
CG2129 | DRSC18209 | 1.67e5 | 1.07e5 | 1.51e5 | 1.22e5 | 7750 | inactive
halo | DRSC00705 | 1.10e5 | 95745 | 83270 | 64935 | 8510 | inactive
CG6142 | DRSC15976 | 1.36e5 | 1.39e5 | 1.77e5 | 1.77e5 | 10395 | inactive
CG30349 | DRSC06421 | 1.70e5 | 1.92e5 | 1.73e5 | 1.73e5 | 13330 | inactive
CG30349 | DRSC06839 | 95580 | 87905 | 99670 | 1.00e5 | 6365 | inactive
mIF3 | DRSC06290 | 91445 | 89295 | 1.35e5 | 1.08e5 | 9345 | inactive
CG3708 | DRSC18646 | 1.11e5 | 1.32e5 | 1.99e5 | 1.85e5 | 9020 | inactive
RpL36 | DRSC18708 | 6792 | 7160 | 9930 | 10185 | 425 | inactive
CG17544 | DRSC02624 | 2.04e5 | 2.12e5 | 1.99e5 | 1.83e5 | 15780 | inactive
CG7794 | DRSC16313 | 1.44e5 | 1.34e5 | 1.57e5 | 1.58e5 | 10395 | inactive
Ctr1C | DRSC15089 | 1.29e5 | 1.75e5 | 2.05e5 | 2.03e5 | 12465 | inactive
CG32023 | DRSC08946 | 2.09e5 | 1.82e5 | 1.43e5 | 1.33e5 | 12900 | inactive
Mlf | DRSC07472 | 85995 | 1.01e5 | 1.55e5 | 2.17e5 | 9640 | inactive
CG15478 | DRSC18057 | 1.77e5 | 1.58e5 | 2.28e5 | 2.33e5 | 11780 | inactive
Exo70 | DRSC10774 | 1.48e5 | 1.35e5 | 1.76e5 | 1.37e5 | 4555 | inactive
Mur11Da | DRSC18960 | 68765 | 69140 | 81385 | 56000 | 4165 | inactive
CG11095 | DRSC19375 | 1.94e5 | 1.14e5 | 1.28e5 | 1.73e5 | 6260 | active
CG9119 | DRSC08620 | 1.03e5 | 1.17e5 | 1.76e5 | 2.42e5 | 10725 | inactive
p120ctn | DRSC07753 | 2.10e5 | 1.86e5 | 2.26e5 | 3.01e5 | 11905 | inactive
Uba4 | DRSC02194 | 1.58e5 | 1.77e5 | 94040 | 1.25e5 | 18375 | inactive
CG5386 | DRSC15788 | 51680 | 42585 | 36620 | 32905 | 6725 | inactive
mag | DRSC11787 | 1.36e5 | 1.33e5 | 87800 | 86530 | 10138 | inactive
MP1 | DRSC12124 | 1.40e5 | 1.32e5 | 73515 | 79220 | 8678 | inactive
Fis1 | DRSC07772 | 1.15e5 | 1.14e5 | 1.71e5 | 1.91e5 | 5870 | inactive
GrlHz | DRSC04424 | 1.04e5 | 97540 | 82565 | 81540 | 7782 | inactive
CG6511 | DRSC10656 | 3.38e5 | 2.41e5 | 2.07e5 | 3.63e5 | 11465 | inactive
CG33769 | DRSC11716 | 1.44e5 | 1.70e5 | 1.76e5 | 1.41e5 | 12980 | inactive
Nup133 | DRSC16150 | 75990 | 88470 | 1.13e5 | 1.03e5 | 5940 | inactive
CG10809 | DRSC09802 | 1.80e5 | 1.35e5 | 1.80e5 | 1.63e5 | 9238 | inactive
Achl | DRSC06665 | 1.00e5 | 88300 | 1.24e5 | 1.34e5 | 8185 | inactive
tapas | DRSC05950 | 1.19e5 | 99395 | 2.04e5 | 2.20e5 | 10300 | inactive
BBS8 | DRSC00360 | 1.09e5 | 1.02e5 | 96395 | 46570 | 8600 | inactive
NiPp1 | DRSC07307 | 57485 | 69685 | 88495 | 83610 | 4025 | inactive
Aduk | DRSC16451 | 1.03e5 | 1.10e5 | 95170 | 86820 | 4630 | inactive

5 entries already listed, ordered by “uninduced reporter light, run 1, well a”, highest first.
gene | dsRNA | induced reporter light, run 1, well a | induced reporter light, run 1, well b | control promoter light, run 1, well a | control promoter light, run 1, well b | uninduced reporter light, run 1, well a | call
CG4669 | DRSC10440 | 1.72e5 | 1.22e5 | 1.04e5 | 53820 | 15050 | inactive
Tsp42Ee | DRSC05947 | 1.58e5 | 1.71e5 | 2.34e5 | 1.96e5 | 13955 | inactive
NAAT1 | DRSC18300 | 1.70e5 | 1.52e5 | 2.72e5 | 2.99e5 | 11535 | inactive
mIF2 | DRSC14510 | 1.07e5 | 99870 | 1.41e5 | 1.55e5 | 8780 | inactive
Ufsp1 | DRSC04958 | 73235 | 84880 | 1.13e5 | 1.15e5 | 4038 | inactive
